Measurements published in PubChem BioAssay AID588497 (NMMLSC, 2011).
About 780 (0.22%) of roughly 360,000 compounds were called active. The shares of active, inactive and inconclusive entries below differ from those in the screen. Rule as the data show it: active = inhibition above about 35% (passing the limit was not always enough); inconclusive = no clear call, values can overlap the other calls.

system: Botulinum neurotoxin type F light chain protease (Clostridium botulinum); experiment: BoNT/F light chain protease inhibitors, primary screen, biochemical, flow cytometry, MLPCN library (AID 588497); details: Multiplex microsphere protease cleavage assay, at 10 µM, active compounds read high; also: plate controls were buffer without enzyme for full effect and enzyme alone for no effect

| Structure (SMILES) | inhibition |
| --- | --- |
| C#CCOC(=O)Nc1ccc(OCC(F)(F)F)nc1 | inconclusive: 30.3% |
| Cc1ccc(OCC(=O)Nc2cc(NC(=O)COc3ccc(C)c(C)c3)cc(C(=O)O)c2)cc1C | inconclusive: 1.6% |
| O=S1(=O)CCOCCCN1Cc1ccccc1F | inactive: 0.4% |
| Cc1cccc2cc3cccc(C)c3nc12 | inconclusive: -21.8% |
| O=C(O)c1ccc(Cn2ccc3ccccc32)o1 | inconclusive: -19.1% |
| Cc1occc1C(=O)Nc1nccs1 | inconclusive: 10.3% |
| CCOc1ccc(CCN2CN(C3CCCCC3)CNC2=S)cc1OCC | inconclusive: -134% |
| Cc1ccc(CC(=O)NCCN2CCOCC2)cc1 | active: 35.8% |
| c1cc(-c2n[nH]c(-c3ccncc3)n2)ccn1 | inconclusive: 27% |
| COC(=O)N/N=C/c1cc(Cl)c(OCc2ccccc2F)c(OC)c1 | inconclusive: 17.4% |
| O=C(CNC(=O)c1ccc(Br)o1)NNC(=O)c1ccccc1O | inconclusive: -14.1% |
| Cc1nnc(SCC(=O)NC(C)(C)C)n1C1CCCCC1 | active: 40.2% |
| Cc1cc(C)c(C(O)c2ncc(-c3cccc4ccccc34)[nH]2)c(C)c1 (stereo not drawn) | inactive: -8.9% |
| Cc1cccc(CNCCc2c[nH]c3ccccc23)c1 | inconclusive: -23.4% |
| O=C1CSC(=S)N1c1cccc(F)c1 | inconclusive: 6.3% |
| COc1ccccc1CC(=O)Nc1cc(C)ccn1 | inconclusive: 4.9% |
| COc1ccc2c(c1)C(c1ccccc1)NC(=O)C2 (stereo not drawn) | inactive: 3.7% |
| Cc1nn(-c2ccccc2)c(C)c1C(=O)Oc1ccccc1 | inconclusive: 12% |
| O=C(CC[C@H]1O[C@@H](n2ccc(=O)[nH]c2=O)[C@H](O)[C@@H]1O)NCCN1CCOCC1 | inactive: -5.4% |
| O=C(O)c1ccc(NC2=C(n3nnc4ccccc43)C(=O)c3ccccc3C2=O)cc1 | inactive: 11.1% |
| COc1ccccc1N1CCN(C(=O)CSc2nnc(-c3ccoc3C)o2)CC1 | inconclusive: -3% |
| O=C(Cn1c(C(F)(F)F)nc2ccccc21)OCC(=O)c1c[nH]c2ccccc12 | inactive: -9.4% |
| CCOc1ccc(C2NC(=O)Cc3cc(OC)c(OC)cc32)cc1 (stereo not drawn) | inactive: 9.6% |
| CC(=O)NCCCc1nc2ccccc2n1Cc1c(F)cccc1Cl | inactive: -1.8% |

| Structure (SMILES) | inhibition |
| --- | --- |
| CC(C)Oc1cccc(NC(=O)C2(C)CCN2C(=O)C(C)C)c1 (stereo not drawn) | inactive: -1.8% |
| CCc1c(C)nc(N2CCN(c3ccc(F)cc3)CC2)[nH]c1=O | inconclusive: -23.3% |
| Nc1ccc(Nc2nc3ccccc3[nH]2)cc1 | inconclusive: -261% |
| CC1(C)CC(=O)C=C(NCCc2ccccc2)C1 | inconclusive: 94.8% |
| Cn1nc(C2CC2)cc1NC(=O)C1(C)CCN1C(=O)Cc1ccc(-c2ccccc2)cc1 (stereo not drawn) | inactive: 0.1% |
| Cc1cc(C(=O)N2CCN(c3ccc(C(F)(F)F)cn3)CC2)c(C)o1 | inconclusive: 27.3% |
| Cc1ccc(N=C2NC(=O)/C(=C/c3cccn3C)S2)cc1 | inconclusive: 15.2% |
| CCC(=O)NCc1ccc(-c2nc3ncccc3o2)cc1 | inconclusive: 27.1% |
| c1ccc(Sc2ccccn2)cc1 | inconclusive: 48.1% |
| COc1ccc(CNCc2ccncc2)cc1OC | inconclusive: -27% |
| Cc1ccc(C(C)NC(=O)c2cccs2)cc1C (stereo not drawn) | inconclusive: -44% |
| O=C(Nc1ccc(S(=O)(=O)N2CCOCC2)cc1)c1cc([N+](=O)[O-])ccc1Cl | inconclusive: 25.2% |
| COC(=O)c1cccc(NC(=O)c2cccc([N+](=O)[O-])c2)c1 | inconclusive: -10.9% |
| CNC(=S)N(Cc1cccs1)Cc1cc2cc(OC)ccc2[nH]c1=O | inactive: -1.7% |
| CCCc1nc2ccc(C)cn2c1Cc1ccc(OC)cc1C | inactive: -14.4% |
| CCOC(=O)N(C)c1c(CC)nc2c(OCc3ccc(F)cc3)cccn12 | inactive: 4% |
| Cc1nc(N2CCN(c3ccccc3)CC2)[nH]c(=O)c1C | inconclusive: -6.4% |
| COC(=O)c1c(C(=O)c2ccc(Br)cc2)n(C)c2ccccc12 | inconclusive: 5.2% |
| COc1cc(C2N(Cc3ccccc3)CCN2Cc2ccccc2)ccc1OC(C)=O | inconclusive: -3.9% |
| O=C(OCc1ccccc1)c1ccccc1 | inactive: 4.4% |
| Nc1ncnc(N)c1N=Nc1ccccc1 | inconclusive: 10.4% |
| CCN(CCS(=O)(=O)c1ccc(Cl)cc1)C(=O)Nc1ccccc1 | inconclusive: -38.8% |
| CCc1cc(C(=O)Cc2ccc(F)cc2)c(O)cc1O | inactive: -1% |
| NC(=O)CSc1nc2ccccc2c(=O)n1CCc1ccccc1 | inconclusive: -3.3% |

Two records picked at random from the list so far, as already listed:

| Structure (SMILES) | inhibition |
| --- | --- |
| O=C(OCc1ccccc1)c1ccccc1 | inactive: 4.4% |
| Cc1ccc(N=C2NC(=O)/C(=C/c3cccn3C)S2)cc1 | inconclusive: 15.2% |
